In the supplement of paper PMC12067093, “Discovery and optimisation of a covalent ligand for TRIM25 and its application to targeted protein ubiquitination” (Chemical Science, 2025):
Some of the results follow.

Compound: CC1Cc2ccccc2N1C(=O)C1CCCN(C1)C(=O)CCl (mixture of isomers) [TRIM25 ligand 11 (diastereomer mixture)]
Experiment: probe-labelled cysteine peptide fold change vs DMSO (competition) (log2 fold change); higher = less target engagement (more negative = stronger competition)
Conditions: THP-1, incubation time: 4 h
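Further: competitive chemoproteomic profiling in live THP-1 cells with an iodoacetamide desthiobiotin (IA-DTB) probe, comparing probe-labelled peptide intensities in compound-treated cells against DMSO-treated controls.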

| Target | probe-labelled cysteine peptide fold change (10 µM) | probe-labelled cysteine peptide fold change (50 µM) |
| --- | --- | --- |
| LARP4_Q71RC2_65_VWQEIAPGNTDATPVTHGTESSWHEIAATSGAHPEGNAELSEDICK (UniProt Q71RC2) | 0.259 | -0.436 |
| LACTB2_Q53H82_100_SINNDTTYCIK (UniProt Q53H82) | -0.0643 | -0.0889 |
| LAGE3_Q14657_23_GGHSCR (UniProt Q14657) | -0.174 | -0.124 |
| LANCL2_Q9NS86_149_RVTFLCGDAGPLAVGAVIYHK (UniProt Q9NS86) | -0.359 | 0.0573 |
| LARS_Q9P2J5_1053_IREDCCPGKPLNVFR (UniProt Q9P2J5) | 0.0323 | -0.0921 |
| KLHDC4_Q8TBB5_58_RTQTVELPCPPPSPR (UniProt Q8TBB5) | 0.00723 | -0.0257 |
| KRAS_P01116_118_CDLPSR (UniProt P01116) | -0.0999 | -0.118 |
| KLC4_Q9NSK0_489_QGKLEAAETLEECALR (UniProt Q9NSK0) | -0.233 | -0.291 |
| KIF2A_O00139_406_CVEDVLK (UniProt O00139) | -0.127 | 0.227 |
| LCMT1_Q9UIC8_136_CKPPLSSPILELHSEDTLQMDGHILDSKR (UniProt Q9UIC8) | -0.147 | 0.00231 |
| LANCL1_O43813_108_SITFLCGDAGPLAVAAVLYHK (UniProt O43813) | -0.101 | -0.111 |
| KPNA1_P52294_424_YLVELGCIK (UniProt P52294) | 0.213 | 0.184 |
| KIF4A_O95239_269_GLLCLGNVISALGDDK (UniProt O95239) | 0.0859 | 0.106 |
| KNL1_Q8NG31_1579_QVIQTHVNAGEAPDPVITSNVPCFHSIKPNLNNLNGK (UniProt Q8NG31) | -0.0213 | 0.0166 |
| LCP1_P13796_101_EGICAIGGTSEQSSVGTQHSYSEEEK (UniProt P13796) | 0.148 | -0.239 |
| LCP1_P13796_206_KLTPFTIQENLNLALNSASAIGCHVVNIGAEDLK (UniProt P13796) | -0.164 | 0.0204 |
| KLHL15_Q96M94_588_LDGLQVCNLHFPDYVLDEVR (UniProt Q96M94) | -0.0595 | -0.00599 |
| L3HYPDH_Q96EM0_137_VNIHCPCGLVTAFVACEDGR (UniProt Q96EM0) | -0.0395 | 0.033 |
| L3HYPDH_Q96EM0_139+148_VNIHCPCGLVTAFVACEDGR (UniProt Q96EM0) | 0.0922 | 0.0573 |
| KLHL26_Q53HC5_603_DLHFPESFAGIACAPVLLPR (UniProt Q53HC5) | 0.481 | -0.228 |
| LARP1_Q6PKG0_864_TASISSSPSEGTPTVGSYGCTPQSLPK (UniProt Q6PKG0) | -0.0729 | -0.161 |

| Target | probe-labelled cysteine peptide fold change (10 µM) | probe-labelled cysteine peptide fold change (50 µM) |
| --- | --- | --- |
| LDHA_P00338_293_DDVFLSVPCILGQNGISDLVK (UniProt P00338) | 0.165 | 0.151 |
| KIF20B_Q96Q89_1330_NQCSQELDMK (UniProt Q96Q89) | -0.167 | 0.00626 |
| KIF4A_O95239_269_GLLCLGNVISALGDDKK (UniProt O95239) | -0.138 | -0.0945 |
| L2HGDH_Q9H9P8_376_ACFLGATVK (UniProt Q9H9P8) | 0.213 | 0.293 |
| KPNB1_Q14974_345_QDENDDDDDWNPCK (UniProt Q14974) | 0.078 | 0.0516 |
| KIF2C_Q99661_560+572_TCMIATISPGISSCEYTLNTLR (UniProt Q99661) | -0.453 | -0.089 |
| LAMTOR2_Q9Y2Q5_92_VANLLLCMYAK (UniProt Q9Y2Q5) | -0.0512 | 0.117 |
| LARP4B_Q92615_167_TLEFCLSR (UniProt Q92615) | -0.169 | -0.00403 |
| LANCL2_Q9NS86_367_GYGICHGTAGNGYSFLSLYR (UniProt Q9NS86) | 0.0845 | -0.0445 |
| L3HYPDH_Q96EM0_139_VNIHCPCGLVTAFVACEDGR (UniProt Q96EM0) | -0.347 | 0.0247 |
| KLHDC4_Q8TBB5_465_QVTLSDLHCLDLHR (UniProt Q8TBB5) | -0.0961 | -0.155 |
| LDHA_P00338_131_YSPNCK (UniProt P00338) | 0.206 | 0.232 |
| LARP1B_Q659C4_102_CQPEANKPTHNNR, A0A3B3ISF0+Q659C4 | -0.0075 | -0.196 |
| LAMC1_P11047_447_CQPGFHSLTEAGCRPCSCDPSGSIDECNIETGR (UniProt P11047) | 0.153 | -0.0719 |
| KTI12_Q96EK9_107_TPLCLVYCVRPGGPIAGPQVAGANENPGR (UniProt Q96EK9) | -0.238 | -0.014 |
| KTI12_Q96EK9_7_PLVVFCGLPYSGK (UniProt Q96EK9) | -0.201 | 0.109 |
| KIF22_Q14807_508_ENHCPTMLRPLSHR (UniProt Q14807) | 0.0531 | -0.158 |
| KIF2A_O00139_420_LIDIGNSCR (UniProt O00139) | -0.0824 | 0.0319 |
| KIF2C_Q99661_287_CLLLVHEPK (UniProt Q99661) | 0.0243 | 0.0609 |
| KPNA6_O60684_467_SGSGVNPYCGLIEEAYGLDK (UniProt O60684) | 0.104 | 0.08 |
| LDHD_Q86WU2_384_HNAWYAALATRPGCK (UniProt Q86WU2) | -0.113 | -0.113 |

| Target | probe-labelled cysteine peptide fold change (10 µM) | probe-labelled cysteine peptide fold change (50 µM) |
| --- | --- | --- |
| KPNA6_O60684_253_VSPCLPVLSR (UniProt O60684) | -0.167 | -0.102 |
| LAGE3_Q14657_113_WKAEDCR (UniProt Q14657) | -0.183 | 0.128 |
| LCP1_P13796_164_HVIPMNPNTNDLFNAVGDGIVLCK (UniProt P13796) | -0.0358 | -0.0341 |
| LAMTOR5_O43504_23+33_NPSIVGVLCTDSQGLNLGCR (UniProt O43504) | -0.148 | 0.226 |
| LARS_Q9P2J5_1093_QGDNCDSIIR (UniProt Q9P2J5) | 0.163 | 0.169 |
| KLHDC4_Q8TBB5_373_EEPEGGSRPACGGAGTQGPVQLVK (UniProt Q8TBB5) | 0.109 | 0.0228 |
| LARS_Q9P2J5_554_NLETFCEETRR (UniProt Q9P2J5) | -0.075 | -0.119 |
| KLHL11_Q9NVR0_526_AVITCYDTETR (UniProt Q9NVR0) | 0.134 | 0.211 |
| LARP1_Q6PKG0_502_REEPEKWPLPPIVDYSQTDFSQLLNCPEFVPR (UniProt Q6PKG0) | -0.217 | -0.354 |
| LARS_Q9P2J5_92_CCLFPFGLHCTGMPIK (UniProt Q9P2J5) | 0.0953 | -0.109 |
| LAMP1_P11279_338_CNAEEHVR (UniProt P11279) | -0.00458 | 0.0599 |
| LANCL2_Q9NS86_350_EAMECSDVIWQR (UniProt Q9NS86) | -0.0151 | -0.123 |
| L3MBTL2_Q969R5_197_AAPVSCFK (UniProt Q969R5) | 0.00668 | 0.0309 |
| KIF4A_O95239_977_EVCEQNQQLLR (UniProt O95239) | 0.179 | -0.208 |
| LCMT1_Q9UIC8_316+318_HYCLCWATK (UniProt Q9UIC8) | 0.0295 | 0.0958 |
| KLHDC3_Q9BQ90_355_LAVIQYNLDQSCLPHDIR (UniProt Q9BQ90) | 0.147 | 0.312 |
| KMT2B_Q9UMN6_1749_IDSLGTLSDLSDCEGR (UniProt Q9UMN6) | -0.00444 | 0.206 |
| LARS_Q9P2J5_936_QPLQKPSHCTIYVAK (UniProt Q9P2J5) | -0.184 | -0.302 |
| KIF20B_Q96Q89-3_672_VETEEATACLELK (UniProt Q96Q89) | 0.0816 | -0.0295 |
| KIF2C_Q99661_344_ATCFAYGQTGSGK (UniProt Q99661) | 0.00355 | 0.00268 |
| LCOR_Q96JN0-3_1334_MECPDALAVESK (UniProt Q96JN0) | 0.0423 | -0.0816 |

| Target | probe-labelled cysteine peptide fold change (10 µM) | probe-labelled cysteine peptide fold change (50 µM) |
| --- | --- | --- |
| KRR1_Q13601_142_ILQDDVACDIIK (UniProt Q13601) | 0.0733 | 0.0664 |
| LARP4B_Q92615_590_EPSVPASCAVSATYER (UniProt Q92615) | -0.00725 | -0.225 |
| LAS1L_Q9Y4W2_456_LFNCSASLDWPR (UniProt Q9Y4W2) | 0.0525 | 0.142 |
| KYNU_Q16719_425_GVVCDK (UniProt Q16719) | -0.00461 | -0.0807 |
| LAP3_P28838_462_SAGACTAAAFLK (UniProt P28838) | -0.0234 | -0.105 |
| KIF20A_O95235_809_AACIAEQYHTVLK (UniProt O95235) | 0.0246 | 0.0489 |
| LDHB_P07195_36_ITVVGVGQVGMACAISILGK (UniProt P07195) | -0.0702 | -0.0641 |
| KITLG_P21583_114_LVNIVDDLVECVK (UniProt P21583) | 0.184 | -0.0652 |
| KPNA6_O60684_422_YLVSLGCIK (UniProt O60684) | -0.044 | 0.154 |
| KIF4A_O95239_443_QHAACK (UniProt O95239) | -0.0695 | -0.0114 |
| L3MBTL2_Q969R5_368_LLYEDGDSDDDFWCHMWSPLIHPVGWSR (UniProt Q969R5) | 0.11 | -0.0453 |
| KNTC1_P50748_2198_HCGKPVPPDTAPCEILK (UniProt P50748) | -0.0749 | -0.0603 |
| KLHL22_Q53GT1_11_AEEQEFTQLCK (UniProt Q53GT1) | -0.0302 | -0.0351 |
| KLHL7_Q8IXQ5_378_DSLAACAAEGK (UniProt Q8IXQ5) | -0.106 | -0.0258 |
| LDHD_Q86WU2_392_GYSTDVCVPISR (UniProt Q86WU2) | -0.0751 | 0.00616 |
| LASP1_Q14847_5_MNPNCAR (UniProt Q14847) | 0.0856 | 0.409 |
| KLHL26_Q53HC5_480_ALHCYDPVADQWEFK (UniProt Q53HC5) | -0.0482 | -0.0399 |
| KIFC1_Q9BW19_663_VNQCVIGTAQANRK (UniProt Q9BW19) | -0.103 | -0.113 |
| KPNB1_Q14974_345_GALQYLVPILTQTLTKQDENDDDDDWNPCK (UniProt Q14974) | -0.0833 | -0.245 |
| LANCL1_O43813_363_FAEWCLEYGEHGCR (UniProt O43813) | 0.041 | 0.0992 |
